Drawing on the supplement of paper PMC11150407, this text covers cell viability for 105 compounds.

Broadly, the cell viability is a read-out of living cells in per cent, often relative to untreated cells.

Molecules are shown by their SMILES. Screen size: about 3,000 compounds; about 45 (2%) showed an effect of 50% or more. This is one part of the list.

The subject of this assay is MOLM1 and UCSD/AML1 (averaged). Nature of the assay: cell viability relative to DMSO control (POC); higher = less growth inhibition. The settings on record: 1 µM; 72 h. The protocol: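 Primary viability screen in the 3q26 EVI1-high AML cell lines MOLM1 and UCSD/AML1, compounds at 1 uM for 72 h. ATP CellTiter-Glo read-out given as percent viable over DMSO control (POC), averaged over duplicates. This mapping covers the TimTec NDL-3000 natural derivative library, whose compounds are identified by TimTec catalogue codes (ST...).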
For the compound `COC(=O)C1Cc2c([nH]c3ccccc23)C(C)N1` (stereo not given), the cell viability came to 120%. In the case of `Cn1c(=O)c2c(nc(Cl)n2Cc2cccc(Br)c2)n(C)c1=O`, the cell viability was determined as 93.3%. As for `O=C(CSc1nc2ccccc2c(=O)[nH]1)Nc1cccc(Cl)c1`, the figure is 101%. Under `O=C(Nc1nc2c(s1)CCCC2)c1ccc2c(c1)OCO2` stands 89.8%. Under `CCOC(=O)C(CCCN=C(N)N)NC(=O)c1ccccc1` (stereo not given) stands 101%; under `COc1ccc(C(=O)Oc2cccc(NC(=O)c3ccco3)c2)cc1OC`, 99.9%. Take `O=C(O)CNC(=O)c1ccccc1O`: the cell viability worked out at 108%. Consider `COc1cc(CN(C)C(=O)c2cnccn2)cc(OC)c1OC`, for which the cell viability was 110%.

For `Cn1c(=O)c2c(nc(SCc3ccccn3)n2Cc2c(F)cccc2Cl)n(C)c1=O`, the cell viability worked out at 105%. For the compound `CCC1C(c2ccccc2)=NNc2nc3c(c(=O)n(C)c(=O)n3C)n21` (stereo not given), the cell viability was 91.8%. In the case of `Cc1cc(=O)oc2cc(OC3OC(CO)C(O)C(O)C3O)ccc12` (stereo not given), the cell viability was determined as 111%. `Cc1cc(C)c2c(CN3CCN(C(=O)c4ccco4)CC3)cc(=O)oc2c1`: the cell viability stood at 97.8%. On to `COc1ccc(/C=C(\C#N)C(=O)OC(C)C)c(OC)c1OC`, for which the cell viability is 106%. Regarding `COc1cc(C=O)cc(Br)c1OCc1ccccc1Br`, the cell viability was 103%. Under `O=C(N/N=C/c1cc(N=Nc2cccc3ccccc23)ccc1O)c1ccc2c(c1)OCO2` stands 64.5%; under `O=C(Cn1c(=O)cc(C(=O)NCc2ccccc2)c2ccccc21)Nc1ccc2c(c1)OCCO2`, 93.4%. For the compound `CCCCCOc1ccc(NC(=O)C(=O)NCc2ccc(OC)cc2)cc1`, the cell viability stood at 92.7%.

Take `Cc1cc(=O)oc2cc(Cl)c(OCc3ccccc3)cc12`: the cell viability was 102%. On to `COc1cc(C=O)cc(OC)c1OC(=O)c1ccco1`, for which the cell viability is 109%.

Turning to `COc1cc(C2C(C#N)=C(N)Oc3c2c(C)nn3-c2ccccc2)cc([N+](=O)[O-])c1O` (stereo not given), the cell viability worked out at 89.7%. Under `Cc1cc2oc(=O)cc(O)c2cc1C` stands 95.7%; under `COc1cc(C(=O)NCCOc2ccc(C)c(C)c2)cc(OC)c1OC`, 97.2%. With `CC(=O)c1ccc(NC(=O)C2Cc3ccccc3CN2S(=O)(=O)c2cccs2)cc1` (stereo not given), the cell viability stood at 97.4%. Consider `O=C(Oc1ccc2oc(-c3ccco3)cc(=O)c2c1)c1cccc(Br)c1`, for which the cell viability amounted to 107%. Take `O=C(Cn1c(=O)cc(C(=O)N2CCOCC2)c2ccccc21)Nc1ccc(Br)cc1`: the cell viability was determined as 95.2%.

In the case of `COc1ccc(C(=O)NC(Cc2c[nH]c3ccccc23)C(=O)O)cc1` (stereo not given), the cell viability came out at 107%.

`Cc1cccc(-c2cc(=O)c3cc(Cl)c(C)cc3o2)c1`: the cell viability was determined as 99.5%. For `Cn1c(SCC(=O)Nc2ccccc2F)nc2c(=O)[nH]cnc21`, the cell viability came to 89.2%. Under `COc1ccc(C(=O)NCCc2c(C)[nH]c3ccc(OC(F)(F)F)cc23)cc1OC` stands 87.7%; under `COc1cc(C2=NOC(=O)/C2=C\c2ccc(Cl)cc2Cl)cc(OC)c1OC`, 105%.

Take `CC(=O)OC1CCC2(C)C(=CCC3C2CCC2(C)C(C(C)O)CCC32)C1` (stereo not given): the cell viability amounted to 90.1%. For `O=[N+]([O-])c1ccc(CSc2ncnc3c2ncn3C2OC(CO)C(O)C2O)cc1` (stereo not given), the cell viability turned out to be 98.5%. For `CCC1CCCCO1` (stereo not given), the cell viability came out at 101%. With `Nc1ncnc2nc(SCc3ccc(Cl)cc3Cl)[nH]c12`, the cell viability came to 98.1%. For `Cc1cc(=O)[nH]c(N2CCN(Cc3ccccc3)CC2)n1`, the cell viability is 93.2%. As for `COCCOC(=O)c1c(C)n(CCCNc2ccc([N+](=O)[O-])cc2Cl)c2ccc(O)cc12`, the figure is 97%; as for `CC(C)c1ccc(C2C(C#N)=C(N)Oc3c2oc(CO)cc3=O)cc1` (stereo not given), 95.6%; as for `CC(=O)OC1CCC2(C)C(CCC3(C)C2C(=O)C=C2C4CC(C)(C(=O)Nc5ccccc5Cl)CCC4(C)CCC23C)C1(C)C` (stereo not given), 79.8%. As for `Cc1ccccc1Nc1nc(Nc2ccccc2C)c2ccccc2n1`, the cell viability is 81.2%. `COc1ccc(CCNC(=O)CSc2nc3c(c(=O)n(C)c(=O)n3C)n2Cc2ccccc2F)cc1OC`: the cell viability stood at 97%. For the compound `Nc1c(C(=O)N2CCC[C@H]2C(=O)O)sc2nc(-c3cccs3)ccc12`, the cell viability came out at 103%. In the case of `CN(C)CCCNc1nc(-c2ccc(Cl)cc2)nc2ccccc12`, the cell viability came out at 53.4%. `COc1ccc(C2c3[nH]c4ccccc4c3CCN2Cc2ccc(Cl)cc2)cc1` (stereo not given): the cell viability is 98.6%. As for `O=C1CCCC2=C1C(c1ccc(-c3cccc(C(F)(F)F)c3)o1)c1c([nH]c(=O)[nH]c1=O)N2` (stereo not given), the cell viability was 86.2%. With `COc1ccc2[nH]cc(CCNS(=O)(=O)c3ccccc3)c2c1`, the cell viability was determined as 110%.

As to `CCOc1ccc(CSc2nc3c(=O)[nH]c(C)nc3n2C)cc1-n1nc2ccccc2n1`, the cell viability is 100%.

Turning to `COc1ccc(NC(=S)NC(=O)/C=C/c2cc(OC)c(OC)c(OC)c2)cc1`, the cell viability was determined as 100%. Regarding `COc1ccc(CCNC(=O)Cn2c(C(C)=O)nc3ccccc32)cc1OC`, the cell viability amounted to 97%. Regarding `O=C(Nc1nccs1)c1ccc2c(c1)OCO2`, the cell viability is 99.1%. `COc1ccc(-c2oc3ccccc3c(=O)c2OC)cc1OC`: the cell viability worked out at 90.1%. As for `O=C(Oc1cccc(/C=N/NC(=O)C(O)(c2ccccc2)c2ccccc2)c1)c1ccc2c(c1)OCO2`, the cell viability was 105%.

As for `COc1ccc2oc(=O)c(-c3ccc(F)cc3)cc2c1`, the cell viability amounted to 104%. Take `CCCCc1c(O)c2ccccc2n(Cc2ccccc2)c1=O`: the cell viability turned out to be 96.9%. For `Cc1cccc(C)c1OCCN=Cc1c(O)c(O)c(C(C)C)c2cc(C)c(-c3c(C)cc4c(C(C)C)c(O)c(O)c(C=NCCOc5c(C)cccc5C)c4c3O)c(O)c12`, the cell viability was found to be 87.5%. Under `COC(=O)/C(=C\C(=O)c1ccccc1)Nc1ccc(I)cc1` stands 98.8%; under `COc1ccccc1NC(=O)NCCc1c[nH]c2ccccc12`, 100%. Consider `CN1CCC(OC(=O)c2cc3cc([N+](=O)[O-])ccc3oc2=O)CC1`, for which the cell viability worked out at 101%. Under `COc1cc(CNS(=O)(=O)c2ccc(CN3C(=O)c4ccccc4C3=O)cc2)cc(OC)c1OC` stands 94.3%. Take `O=C(Oc1ccc2oc(-c3ccccc3)cc(=O)c2c1)c1cccs1`: the cell viability stood at 104%. On to `CCOC(=O)CNC(=O)c1cc(Cl)ccc1Cl`, for which the cell viability worked out at 99.5%.

For the compound `Nc1nc(N)c2nccnc2n1`, the cell viability amounted to 114%.

With `CCn1c(N/N=C/c2ccccc2Cl)nc2c1c(=O)[nH]c(=O)n2C`, the cell viability came to 101%. As for `COc1cc2c(cc1OC)CC(=O)NC2`, the figure is 89.9%. As for `COc1cc(CCC(=O)Nc2nnc(C(C)(C)C)s2)cc(OC)c1OC`, the cell viability stood at 97.9%.

On to `O=c1oc2ccc(Cl)cc2cc1-c1nc2ccccc2s1`, for which the cell viability is 101%. As to `O=C(Cc1n[nH]c(=O)[nH]c1=O)N/N=C/c1cccc([N+](=O)[O-])c1`, the cell viability was 97.7%.

As for `O=C(Cn1cc(I)cn1)N1CCc2ccccc2C1`, the cell viability came to 103%.

In the case of `CCOC(=O)c1ccc2[nH]c(=O)c(CC)c(O)c2c1`, the cell viability came to 91.7%. Turning to `COc1cc(CC(=O)O)ccc1OC(C)=O`, the cell viability was found to be 101%. Consider `COc1cc(C(=O)Nc2ccc3ncn(C)c3c2)cc(OC)c1OC`, for which the cell viability was found to be 93.9%.

`COc1cc(C2NC(=O)NC(C)=C2C(=O)OCC(F)(F)F)ccc1O` (stereo not given): the cell viability stood at 104%.

As to `COCCOC(=O)c1c(C)n(CCOc2ccc(C)cc2)c2c1cc(O)c1ccccc12`, the cell viability is 96.7%. As for `CSc1nc2[nH]c(=O)[nH]c2c(=O)[nH]1`, the cell viability was found to be 101%. `NC(=O)COc1ccc2oc(-c3ccccc3)cc(=O)c2c1`: the cell viability is 116%. For the compound `C/C=C/c1ccc(OCC(=O)OC)c(OC)c1`, the cell viability was 105%. With `CCCNC(=O)c1cc(=O)n(CC(=O)Nc2c(C)cc(C)cc2C)c2ccccc12`, the cell viability was determined as 94.1%.

With `CC(=O)OCC1OC(OCCN=[N+]=[N-])C(OC(C)=O)C(OC(C)=O)C1OC(C)=O` (stereo not given), the cell viability was 101%.

On to `COc1cc(/C=C(\C#N)c2ccc(Cl)cc2)ccc1OC(=O)C1COc2ccccc2O1` (stereo not given), for which the cell viability is 99.3%.

With `COc1ccccc1NC(=O)c1ccc2c(c1)OCO2`, the cell viability came out at 94.7%. Consider `CCN(CC)c1ccc(C2C3CCCCC3(O)CCN2C(=O)/C=C/c2ccc3c(c2)OCO3)cc1` (stereo not given), for which the cell viability was found to be 109%. Under `CCOC(=O)C1=C(N)Oc2c(oc(CO)cc2=O)C1c1c(Cl)cccc1Cl` (stereo not given) stands 106%.

For `Cc1ccc(NC(=O)CSc2nc3c(=O)[nH]cnc3n2C)cc1F`, the cell viability worked out at 91.5%.

`CCOC(=O)c1c(C)n(CCSCC)c2c1cc(O)c1ccccc12`: the cell viability came out at 99.6%.

Turning to `Cc1cc2c(c(O)c1-c1c(C)cc3c(c1O)/C(=C/Nc1ccc(S(=O)(=O)NC(=N)N)cc1)C(=O)C(O)=C3C(C)C)/C(=C/Nc1ccc(S(=O)(=O)NC(=N)N)cc1)C(=O)C(O)=C2C(C)C`, the cell viability was found to be 98.5%. Regarding `O=C(COc1ccc(Cl)cc1Cl)OCC1CCCN2CCCCC12` (stereo not given), the cell viability came out at 104%. As for `O=C(Cn1c(=O)cc(C(=O)N2CCCC2)c2ccccc21)Nc1cccc(Br)c1`, the figure is 105%; as for `Cc1ccc2[nH]c(=O)cc(CSc3nc4cc(C(F)(F)F)ccc4n3C3CC3)c2c1`, 89%; as for `COc1cccc(NC(=O)CSc2nc3c(=O)[nH]cnc3n2C)c1`, 106%. As for `COc1ccc(CNC(=O)CSc2nc3ccccc3c(=O)[nH]2)cc1`, the cell viability was determined as 109%.

Regarding `Cc1oc(C)c(C(=O)NC(Cc2ccccc2)C(=O)O)c1C(=O)NC(Cc1ccccc1)C(=O)O` (stereo not given), the cell viability worked out at 99%. Under `COc1cc(C(=O)Nc2ccc(-c3ccc([N+](=O)[O-])cc3)cc2)c(Br)c(OC)c1OC` stands 105%; under `COc1ccc(C(NC(=O)CC(NOC(=O)CC2c3ccccc3-c3ccccc32)C(=O)O)c2ccc(OC)cc2)cc1` (stereo not given), 100%. Under `COc1cc(C(=O)CC2OC(=O)c3c2ccc(OC)c3OC)ccc1O` (stereo not given) stands 99.2%; under `N#Cc1nc2ccccc2n1CC(=O)N1CCc2ccccc2C1`, 94.8%.

Take `CCOc1cc(C2C(C(=O)OC(C)CC)=C(C)NC3=C2C(=O)CC(c2ccc(OC)cc2)C3)cc(Br)c1O` (stereo not given): the cell viability came to 87.3%. As to `COc1cc(C=O)cc(I)c1O`, the cell viability came out at 91.6%. As for `COc1cc(OC)cc(C(=O)N2CCCc3cccc(OCCNC(C)=O)c32)c1`, the figure is 97.3%; as for `O=C(O)c1ccc(NCCC(=O)c2ccc3c(c2)OCO3)cc1`, 97.4%; as for `Cc1ccc(C(=O)NC(=O)CSc2nccc(=O)[nH]2)cc1`, 108%. As for `COc1ccc(C=O)c(OC)c1OC`, the figure is 96%; as for `Cc1ccc(C(=O)COc2cc3c(C)cc(=O)oc3cc2Cl)cc1`, 98.6%; as for `COc1c2c(c([N+](=O)[O-])c(OC)c1OC)C(=O)OC2`, 95.1%. Regarding `O=C(CNc1n[nH]c(=O)[nH]c1=O)N/N=C/c1ccc(C(F)(F)F)cc1`, the cell viability came to 93.5%. Regarding `Cc1ccc(NC(=O)CSc2nc3c(=O)[nH]cnc3n2CC2CCCO2)c(Cl)c1` (stereo not given), the cell viability turned out to be 98.7%. As for `COc1cc(C2C(C#N)=C(N)Oc3n[nH]c(C(C)(C)C)c32)ccc1O` (stereo not given), the figure is 118%.
